# The supplement of paper PMC12819154, “High-throughput peptide-centric local stability assay extends protein–ligand identification to membrane proteins, tissues and bacteria” (Nature Structural & Molecular Biology, 2025)
# Chains of the proteins cited; added tags and fusions are not shown. Lines headed by an entry give the natural chain unless they say otherwise; changes in a name come on top.
# UniProt Q8K0B2: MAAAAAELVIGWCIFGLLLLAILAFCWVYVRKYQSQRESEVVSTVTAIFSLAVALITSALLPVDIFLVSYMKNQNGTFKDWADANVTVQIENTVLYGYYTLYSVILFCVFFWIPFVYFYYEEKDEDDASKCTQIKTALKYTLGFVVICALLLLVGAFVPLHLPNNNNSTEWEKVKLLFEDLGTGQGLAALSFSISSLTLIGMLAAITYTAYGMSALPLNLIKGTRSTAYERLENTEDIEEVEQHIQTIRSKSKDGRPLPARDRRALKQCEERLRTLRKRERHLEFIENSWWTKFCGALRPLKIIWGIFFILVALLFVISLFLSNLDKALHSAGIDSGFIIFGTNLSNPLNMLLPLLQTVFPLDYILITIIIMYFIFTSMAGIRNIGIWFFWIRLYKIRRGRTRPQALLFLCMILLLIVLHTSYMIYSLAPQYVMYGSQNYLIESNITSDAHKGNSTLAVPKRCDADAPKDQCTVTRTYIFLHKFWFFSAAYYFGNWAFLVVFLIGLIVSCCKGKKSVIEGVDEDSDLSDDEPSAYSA
# UniProt Q8K0C4: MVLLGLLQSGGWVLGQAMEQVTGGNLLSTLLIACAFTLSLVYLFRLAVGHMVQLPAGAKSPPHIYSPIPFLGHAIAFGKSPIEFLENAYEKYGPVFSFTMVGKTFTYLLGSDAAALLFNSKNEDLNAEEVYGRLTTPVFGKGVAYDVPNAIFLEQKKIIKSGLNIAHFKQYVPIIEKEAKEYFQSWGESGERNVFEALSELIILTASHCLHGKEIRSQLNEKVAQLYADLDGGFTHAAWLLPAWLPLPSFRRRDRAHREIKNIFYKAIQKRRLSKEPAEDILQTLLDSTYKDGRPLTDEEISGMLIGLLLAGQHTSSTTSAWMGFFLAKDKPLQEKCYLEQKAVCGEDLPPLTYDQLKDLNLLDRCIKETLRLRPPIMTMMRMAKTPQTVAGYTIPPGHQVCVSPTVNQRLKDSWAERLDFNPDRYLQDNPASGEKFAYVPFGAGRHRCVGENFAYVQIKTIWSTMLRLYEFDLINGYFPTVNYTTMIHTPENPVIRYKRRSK
# UniProt Q8CHS2: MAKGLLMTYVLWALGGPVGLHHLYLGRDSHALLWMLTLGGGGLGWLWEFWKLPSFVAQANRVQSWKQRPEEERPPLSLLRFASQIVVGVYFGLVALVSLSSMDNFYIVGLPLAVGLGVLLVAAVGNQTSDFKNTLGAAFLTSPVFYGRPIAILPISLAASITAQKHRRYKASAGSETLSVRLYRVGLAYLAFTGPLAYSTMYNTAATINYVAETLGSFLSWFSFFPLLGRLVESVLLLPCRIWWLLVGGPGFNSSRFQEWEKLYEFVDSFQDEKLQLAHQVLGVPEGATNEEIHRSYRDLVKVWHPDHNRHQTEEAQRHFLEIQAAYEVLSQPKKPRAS
# UniProt Q8CJ26: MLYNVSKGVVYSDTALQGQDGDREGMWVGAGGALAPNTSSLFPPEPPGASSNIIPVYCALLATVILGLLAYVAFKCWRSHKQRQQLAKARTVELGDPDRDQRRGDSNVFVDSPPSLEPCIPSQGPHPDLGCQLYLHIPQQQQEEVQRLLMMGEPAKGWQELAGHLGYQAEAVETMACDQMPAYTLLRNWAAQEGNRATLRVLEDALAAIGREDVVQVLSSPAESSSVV
# UniProt Q8CH62: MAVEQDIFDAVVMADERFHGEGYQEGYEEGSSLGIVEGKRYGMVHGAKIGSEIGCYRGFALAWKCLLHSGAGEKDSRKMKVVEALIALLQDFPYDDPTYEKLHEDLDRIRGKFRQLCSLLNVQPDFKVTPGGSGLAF
# UniProt Q8CB87: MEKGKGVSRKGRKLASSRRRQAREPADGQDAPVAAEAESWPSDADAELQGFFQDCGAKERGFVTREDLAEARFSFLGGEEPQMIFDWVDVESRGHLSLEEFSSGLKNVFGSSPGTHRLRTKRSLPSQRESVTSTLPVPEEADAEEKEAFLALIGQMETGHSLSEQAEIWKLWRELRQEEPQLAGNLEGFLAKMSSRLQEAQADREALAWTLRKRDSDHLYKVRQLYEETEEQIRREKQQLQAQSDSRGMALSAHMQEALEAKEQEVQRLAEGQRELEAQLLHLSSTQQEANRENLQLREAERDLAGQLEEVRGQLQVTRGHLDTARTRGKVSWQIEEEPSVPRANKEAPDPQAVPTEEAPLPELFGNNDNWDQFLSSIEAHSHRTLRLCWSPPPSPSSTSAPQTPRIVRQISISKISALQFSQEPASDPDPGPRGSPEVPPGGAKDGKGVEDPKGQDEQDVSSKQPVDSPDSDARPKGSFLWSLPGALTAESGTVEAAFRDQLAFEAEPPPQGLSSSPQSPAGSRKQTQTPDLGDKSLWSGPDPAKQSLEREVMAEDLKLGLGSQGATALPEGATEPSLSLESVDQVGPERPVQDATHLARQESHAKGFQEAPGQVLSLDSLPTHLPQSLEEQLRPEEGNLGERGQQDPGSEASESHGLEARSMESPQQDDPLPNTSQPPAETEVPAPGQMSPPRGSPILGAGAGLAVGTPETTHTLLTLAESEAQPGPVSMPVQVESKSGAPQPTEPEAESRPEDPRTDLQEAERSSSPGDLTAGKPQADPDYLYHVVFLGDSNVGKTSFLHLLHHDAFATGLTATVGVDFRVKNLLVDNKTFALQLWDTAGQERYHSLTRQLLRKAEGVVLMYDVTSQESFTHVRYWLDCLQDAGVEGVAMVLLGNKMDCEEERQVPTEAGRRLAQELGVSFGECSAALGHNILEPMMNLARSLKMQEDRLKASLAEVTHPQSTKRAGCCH
# UniProt Q8CIV8: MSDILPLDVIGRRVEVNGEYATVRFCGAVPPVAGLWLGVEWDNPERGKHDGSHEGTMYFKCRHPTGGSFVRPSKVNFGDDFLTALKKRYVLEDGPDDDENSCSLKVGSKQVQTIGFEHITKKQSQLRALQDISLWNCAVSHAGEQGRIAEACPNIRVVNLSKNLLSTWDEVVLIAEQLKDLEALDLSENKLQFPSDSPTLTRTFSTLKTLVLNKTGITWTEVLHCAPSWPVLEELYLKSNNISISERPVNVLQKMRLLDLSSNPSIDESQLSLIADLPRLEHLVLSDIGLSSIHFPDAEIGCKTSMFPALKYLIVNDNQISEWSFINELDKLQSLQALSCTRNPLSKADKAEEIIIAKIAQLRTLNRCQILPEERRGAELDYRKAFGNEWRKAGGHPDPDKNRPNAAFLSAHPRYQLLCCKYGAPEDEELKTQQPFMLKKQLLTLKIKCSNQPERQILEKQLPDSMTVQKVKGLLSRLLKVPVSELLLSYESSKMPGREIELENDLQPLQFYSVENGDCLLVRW
# UniProt Q8CH77: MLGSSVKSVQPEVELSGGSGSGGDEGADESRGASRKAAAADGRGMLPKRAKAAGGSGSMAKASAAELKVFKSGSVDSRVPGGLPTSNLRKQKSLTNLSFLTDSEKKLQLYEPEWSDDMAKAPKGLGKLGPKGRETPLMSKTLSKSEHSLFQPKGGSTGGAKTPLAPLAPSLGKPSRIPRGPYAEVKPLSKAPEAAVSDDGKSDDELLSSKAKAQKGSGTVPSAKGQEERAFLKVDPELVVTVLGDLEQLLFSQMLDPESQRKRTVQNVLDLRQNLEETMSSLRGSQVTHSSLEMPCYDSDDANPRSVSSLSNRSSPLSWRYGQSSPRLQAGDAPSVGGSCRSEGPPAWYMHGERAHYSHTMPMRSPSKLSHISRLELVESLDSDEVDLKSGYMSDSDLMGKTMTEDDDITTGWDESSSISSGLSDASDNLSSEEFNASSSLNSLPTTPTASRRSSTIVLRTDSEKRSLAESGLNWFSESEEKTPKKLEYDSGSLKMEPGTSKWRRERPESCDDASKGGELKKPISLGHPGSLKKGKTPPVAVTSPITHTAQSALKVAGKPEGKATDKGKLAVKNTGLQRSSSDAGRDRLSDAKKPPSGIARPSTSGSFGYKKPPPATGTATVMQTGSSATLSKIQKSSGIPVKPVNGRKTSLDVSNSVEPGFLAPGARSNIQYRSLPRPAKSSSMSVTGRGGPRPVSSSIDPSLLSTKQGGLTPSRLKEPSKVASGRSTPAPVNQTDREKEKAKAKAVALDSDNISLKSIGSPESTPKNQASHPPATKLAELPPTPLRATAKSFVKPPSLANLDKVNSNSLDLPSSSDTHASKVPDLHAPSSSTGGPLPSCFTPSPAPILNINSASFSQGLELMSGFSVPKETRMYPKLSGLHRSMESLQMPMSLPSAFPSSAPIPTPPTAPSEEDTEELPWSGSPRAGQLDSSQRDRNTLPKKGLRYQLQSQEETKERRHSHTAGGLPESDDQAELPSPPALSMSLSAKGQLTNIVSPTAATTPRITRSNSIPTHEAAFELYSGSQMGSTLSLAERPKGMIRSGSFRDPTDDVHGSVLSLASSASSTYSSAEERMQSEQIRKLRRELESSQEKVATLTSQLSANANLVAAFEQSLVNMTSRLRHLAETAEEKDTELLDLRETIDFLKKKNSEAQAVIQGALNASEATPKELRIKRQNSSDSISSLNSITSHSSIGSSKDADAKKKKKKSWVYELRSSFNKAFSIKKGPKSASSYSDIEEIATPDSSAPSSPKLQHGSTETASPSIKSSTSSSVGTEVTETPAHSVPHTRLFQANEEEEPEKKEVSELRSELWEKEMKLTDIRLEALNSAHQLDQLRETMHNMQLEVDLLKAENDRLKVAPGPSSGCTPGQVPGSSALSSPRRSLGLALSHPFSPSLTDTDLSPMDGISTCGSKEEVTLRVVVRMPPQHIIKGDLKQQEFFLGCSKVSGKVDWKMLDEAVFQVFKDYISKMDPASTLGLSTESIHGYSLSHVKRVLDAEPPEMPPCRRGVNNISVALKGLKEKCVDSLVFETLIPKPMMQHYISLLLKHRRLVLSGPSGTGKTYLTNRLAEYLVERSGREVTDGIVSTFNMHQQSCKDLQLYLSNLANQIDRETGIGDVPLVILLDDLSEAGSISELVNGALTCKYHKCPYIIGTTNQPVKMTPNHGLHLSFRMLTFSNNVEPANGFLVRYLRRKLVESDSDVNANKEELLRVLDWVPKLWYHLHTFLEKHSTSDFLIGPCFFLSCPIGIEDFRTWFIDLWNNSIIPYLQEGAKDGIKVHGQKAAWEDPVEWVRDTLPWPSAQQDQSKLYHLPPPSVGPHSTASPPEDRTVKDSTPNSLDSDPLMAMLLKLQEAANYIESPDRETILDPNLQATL
# UniProt Q8CFI2: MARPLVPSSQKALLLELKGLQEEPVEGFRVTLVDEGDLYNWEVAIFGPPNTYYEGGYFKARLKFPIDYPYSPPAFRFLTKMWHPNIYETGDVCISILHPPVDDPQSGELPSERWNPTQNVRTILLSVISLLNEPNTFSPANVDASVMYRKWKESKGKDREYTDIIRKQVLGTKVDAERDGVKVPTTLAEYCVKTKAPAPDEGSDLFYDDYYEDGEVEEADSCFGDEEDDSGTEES
# UniProt Q8CI52: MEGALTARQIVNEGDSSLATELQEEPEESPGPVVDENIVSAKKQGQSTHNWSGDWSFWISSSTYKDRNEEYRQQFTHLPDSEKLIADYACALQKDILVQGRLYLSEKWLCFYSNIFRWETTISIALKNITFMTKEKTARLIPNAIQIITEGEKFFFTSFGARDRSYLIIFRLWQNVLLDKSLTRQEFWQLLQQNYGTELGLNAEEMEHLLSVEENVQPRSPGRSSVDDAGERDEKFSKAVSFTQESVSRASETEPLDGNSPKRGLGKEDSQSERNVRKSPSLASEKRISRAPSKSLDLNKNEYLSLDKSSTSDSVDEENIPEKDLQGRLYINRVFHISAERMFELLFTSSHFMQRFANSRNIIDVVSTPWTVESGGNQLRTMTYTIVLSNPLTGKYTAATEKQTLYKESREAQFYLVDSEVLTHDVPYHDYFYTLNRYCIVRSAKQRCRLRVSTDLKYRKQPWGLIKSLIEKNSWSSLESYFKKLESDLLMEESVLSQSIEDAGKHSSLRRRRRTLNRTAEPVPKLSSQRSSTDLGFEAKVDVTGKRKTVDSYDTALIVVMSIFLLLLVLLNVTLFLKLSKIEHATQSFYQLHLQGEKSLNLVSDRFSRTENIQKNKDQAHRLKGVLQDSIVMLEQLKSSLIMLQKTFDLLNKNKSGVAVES
# UniProt Q8K072: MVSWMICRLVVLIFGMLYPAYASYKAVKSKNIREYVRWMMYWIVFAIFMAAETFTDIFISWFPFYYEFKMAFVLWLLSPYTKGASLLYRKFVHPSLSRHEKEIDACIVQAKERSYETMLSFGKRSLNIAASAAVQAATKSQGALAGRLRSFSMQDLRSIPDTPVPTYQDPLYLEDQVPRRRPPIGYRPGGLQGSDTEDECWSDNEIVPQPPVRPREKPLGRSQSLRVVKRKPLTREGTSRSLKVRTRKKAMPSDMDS
# UniProt Q8CCS6: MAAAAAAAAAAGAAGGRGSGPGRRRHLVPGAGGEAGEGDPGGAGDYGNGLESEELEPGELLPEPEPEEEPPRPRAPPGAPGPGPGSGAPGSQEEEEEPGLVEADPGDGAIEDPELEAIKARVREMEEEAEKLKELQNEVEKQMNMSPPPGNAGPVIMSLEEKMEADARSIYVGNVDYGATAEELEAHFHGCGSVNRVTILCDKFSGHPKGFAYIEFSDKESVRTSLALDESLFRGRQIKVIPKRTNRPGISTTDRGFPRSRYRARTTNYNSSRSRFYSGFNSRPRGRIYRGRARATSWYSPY
# Some of the results follow. Most entries show no effect beyond the scatter of the controls.
# Compound: CN[C@@H]1C[C@H]2O[C@@](C)([C@@H]1OC)n1c3ccccc3c3c4c(c5c6ccccc6n2c5c31)C(=O)NC4 [staurosporine]
# Experiment: log2 fold change of tryptic peptide abundance, ligand vs vehicle (limited proteolysis) (log2 ratio); higher = more trypsin-susceptible (destabilized)
# Conditions: ligand concentration: 20 uM; sample: mouse liver crude lysate; replicate design: treated separately
row,Target,log2 fold change
1,"UniProt Q8CIW5 (peptide sequence: KEDDDKELQTASIFGSAK, peptide start residue: 562)",0.333
2,"UniProt Q8K0B2 (peptide sequence: DGRPLPAR, peptide start residue: 254)",-0.17
3,"UniProt Q8CFK6 (peptide sequence: ASQSLDCCQR, peptide start residue: 591)",0.241
4,"UniProt Q8CJ67 (peptide sequence: LLNESGPAHSK, peptide start residue: 28)",0.582
5,"UniProt Q8K0C4 (peptide sequence: LDFNPDR, peptide start residue: 419)",-0.0861
6,"UniProt Q8CC12 (peptide sequence: ELQDSILALR, peptide start residue: 663)",-0.391
7,"UniProt Q8CHS2 (peptide sequence: VWHPDHNR, peptide start residue: 303)",-0.29
8,"UniProt Q8CCK0 (peptide sequence: AGVIFPVGR, peptide start residue: 19)",0.159
9,"UniProt Q8CDI7 (peptide sequence: HLTNKMASLEHHK, peptide start residue: 537)",-0.34
10,"UniProt Q8CFA1 (peptide sequence: RLMENIVLYKEER, peptide start residue: 601)",0.449
11,"UniProt Q8CJ26 (peptide sequence: TVELGDPDRDQR, peptide start residue: 91)",-0.202
12,"UniProt Q8CH62 (peptide sequence: YGMVHGAK, peptide start residue: 41)",-0.0771
13,"UniProt Q8CHT0 (peptide sequence: DPQEPIMK, peptide start residue: 437)",0.215
14,"UniProt Q8CDA1 (peptide sequence: VVMEQQLKK, peptide start residue: 475)",0.437
15,"UniProt Q8CJF9 (peptide sequence: EVWFGFHQSVRPAMWK, peptide start residue: 195)",-0.323
16,"UniProt Q8CF60 (peptide sequence: SFRQGMHLTR, peptide start residue: 580)",0.253

# Looked up one by one from the list above (three):
row,Target,log2 fold change
3,"UniProt Q8CFK6 (peptide sequence: ASQSLDCCQR, peptide start residue: 591)",0.241
10,"UniProt Q8CFA1 (peptide sequence: RLMENIVLYKEER, peptide start residue: 601)",0.449
1,"UniProt Q8CIW5 (peptide sequence: KEDDDKELQTASIFGSAK, peptide start residue: 562)",0.333

# (continued)

row,Target,log2 fold change
1,"UniProt Q8CB87 (peptide sequence: ERGFVTR, peptide start residue: 59)",-0.0416
2,"UniProt Q8CIV8 (peptide sequence: NRPNAAFLSAHPR, peptide start residue: 402)",0.456
3,"UniProt Q8CI03 (peptide sequence: AGQEPSVGAR, peptide start residue: 16)",-0.318
4,"UniProt Q8CH77 (peptide sequence: AVALDSDNISLK, peptide start residue: 747)",-0.286
5,"UniProt Q8CFI2 (peptide sequence: ARPLVPSSQK, peptide start residue: 2)",0.233
6,"UniProt Q8K0Q5 (peptide sequence: TQAAAVQKR, peptide start residue: 141)",0.738
7,"UniProt Q8CI52 (peptide sequence: VFHISAER, peptide start residue: 334)",0.156
8,"UniProt Q8CHG5 (peptide sequence: TIYDYVR, peptide start residue: 45)",-0.00708
9,"UniProt Q8K072 (peptide sequence: SYETMLSFGKR, peptide start residue: 114)",0.442
10,"UniProt Q8CCS6 (peptide sequence: LKELQNEVEK, peptide start residue: 132)",0.215
11,"UniProt Q8JZZ7 (peptide sequence: GHVFAGDVSSSVR, peptide start residue: 556)",-0.359
12,"UniProt Q8K010 (peptide sequence: ELGFTHVSLSSEVMPMVR, peptide start residue: 210)",0.243
13,"UniProt Q8CHE4 (peptide sequence: SYIMSCEEER, peptide start residue: 1263)",0.587
14,"UniProt Q8CB27 (peptide sequence: QFTDVNR, peptide start residue: 304)",-0.204
15,"UniProt Q8CE64 (peptide sequence: SISDRVPGETSER, peptide start residue: 94)",-0.116
